Data as given in PubChem BioAssay AID686937 (Drosophila RNAi Screening Center, 2013)
Purpose: 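Genes in the fly needed for secretion of protein constitutively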 (primary screen). Cell system: Drosophila S2 cells expressing secreted horseradish peroxidase. Knock-down reagent: long dsRNA against Drosophila genes. Timing: about 5.5 days (5 days dsRNA, then 12 h reporter induction). Conditions: reporter expression induced after 5 days of dsRNA, read 12 h later; inducer not stated. Measurement: 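Chemiluminescent measurement of peroxidase in the medium 12 h after reporter induction, following 5 days of dsRNA, given as a z-score per plate; higher means more secretion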. Scale: z-score: higher = more reporter secreted into medium.
In all, the deposit lists about 23,000 reagents; shown is a random part of those that have a named target and a result. 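Reduced-secretion tags in replicate 1 do not always agree with the z-scores; no criterion for assigning the tags was given.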 No sequences are given here. Not given: the amount of reagent.

no.	predicted target	dsRNA	z-score, replicate 1	z-score, replicate 2	z-score, replicate 3	z-score, replicate 4	phenotype, replicate 1
1	Parp1 (Poly-(ADP-ribose) polymerase 1)	DRSC07725	-0.15	-0.39			
2	Parp1 (Poly-(ADP-ribose) polymerase 1)	DRSC07778	0.3	0.22			
3	Parp1 (Poly-(ADP-ribose) polymerase 1)	DRSC07780	0.4	0.33			
4	CG32809	DRSC18507	-0.86	0.44	0.38	-0.42	
5	CG32809	DRSC18592	0.13	0.32			
6	CG1239	DRSC12204	-0.01	-0.03			
7	CG14073	DRSC10078	0.07	-0.5			
8	Cpr11B (Cuticular protein 11B)	DRSC19859	-0.11	0.3			
9	ReepA (Receptor expression enhancing protein A)	DRSC04572	0.28	0.29			
10	ReepA (Receptor expression enhancing protein A)	DRSC22475	0.5	0.44			
11	Tdrd3 (Tudor domain containing 3)	DRSC10016	0.1	0.33			
12	CG2577	DRSC19863	0.42	0.15			
13	CG14212	DRSC19568	0.29	0.3			
14	Spn88Ea (Serpin 88Ea)	DRSC17061	-0.38	0.27			
15	mtgo (miles to go)	DRSC02245	0.12	0.53	0.24	0.14	reduced secretion
16	mtgo (miles to go)	DRSC02246	-2.58	-0.37	-1.22	0.55	
17	mtgo (miles to go)	DRSC02769	-0.34	0.13			
18	mtgo (miles to go)	DRSC21392	0.01	0.13			
19	mtgo (miles to go)	DRSC21743	-0.36	-1.24			reduced secretion
20	hid (head involution defective)	DRSC11316	0.15	0.31			
21	Xpac (Xeroderma pigmentosum group A-like)	DRSC18730	0.37	-0.15			
22	CG34458	DRSC06925	0.23	0.26			
23	cni (cornichon)	DRSC03512	0.01	0.34			
24	Or23a (Odorant receptor 23a)	DRSC00767	-0.03	-0.01			
25	Acp32CD (Accessory gland protein 32CD)	DRSC01858	0.27	0.28			
26	mwh (multiple wing hairs)	DRSC07949	0.47	-0.38			
27	mwh (multiple wing hairs)	DRSC08382	0.58	0.39			
28	Tnpo (Transportin)	DRSC11309	-3.63	-3.89			reduced secretion
29	Ubc84D (Ubiquitin conjugating enzyme 84D)	DRSC12610	0.18	0.39			
30	CG13640	DRSC14639	0.5	0.56			
31	rictor (rapamycin-insensitive companion of Tor)	DRSC20071	0.48	0.37			
32	tilB (touch insensitive larva B)	DRSC20634	0.13	0			
33	CG42580	DRSC20397	0.54	0.51			

2 entries from above in another layout.
predicted target,dsRNA,"z-score, replicate 1","z-score, replicate 2","z-score, replicate 3","z-score, replicate 4","phenotype, replicate 1"
mtgo (miles to go),DRSC21392,0.01,0.13,,,
mtgo (miles to go),DRSC21743,-0.36,-1.24,,,reduced secretion
